{"sequences": {"note": "Amino acid sequences for entries named in this document (tags omitted).", "UniProt P49023": "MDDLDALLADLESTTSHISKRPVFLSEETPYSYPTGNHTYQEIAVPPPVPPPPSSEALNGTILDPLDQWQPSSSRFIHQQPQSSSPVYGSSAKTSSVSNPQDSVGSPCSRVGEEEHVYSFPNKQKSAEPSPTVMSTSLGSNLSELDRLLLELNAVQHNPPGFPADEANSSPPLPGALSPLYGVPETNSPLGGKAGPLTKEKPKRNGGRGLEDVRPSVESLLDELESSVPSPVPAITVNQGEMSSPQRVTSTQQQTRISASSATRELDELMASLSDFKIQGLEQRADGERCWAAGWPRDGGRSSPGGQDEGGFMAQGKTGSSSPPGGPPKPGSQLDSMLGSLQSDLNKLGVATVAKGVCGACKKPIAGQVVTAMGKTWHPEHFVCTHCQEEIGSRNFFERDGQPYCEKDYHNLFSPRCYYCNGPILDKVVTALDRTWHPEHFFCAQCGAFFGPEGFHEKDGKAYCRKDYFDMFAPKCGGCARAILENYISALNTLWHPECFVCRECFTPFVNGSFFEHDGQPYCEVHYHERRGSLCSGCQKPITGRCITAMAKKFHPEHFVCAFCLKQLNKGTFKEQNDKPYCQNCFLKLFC"}, "source": "paper doi:10.1101/2020.04.03.023721", "test_in_all_cases": "co-IP", "key": {"Flag-P2X7(29-595)": {"target": "T1, Flag-P2X7(29-595) (UniProt Q99572)", "T1 sequence": "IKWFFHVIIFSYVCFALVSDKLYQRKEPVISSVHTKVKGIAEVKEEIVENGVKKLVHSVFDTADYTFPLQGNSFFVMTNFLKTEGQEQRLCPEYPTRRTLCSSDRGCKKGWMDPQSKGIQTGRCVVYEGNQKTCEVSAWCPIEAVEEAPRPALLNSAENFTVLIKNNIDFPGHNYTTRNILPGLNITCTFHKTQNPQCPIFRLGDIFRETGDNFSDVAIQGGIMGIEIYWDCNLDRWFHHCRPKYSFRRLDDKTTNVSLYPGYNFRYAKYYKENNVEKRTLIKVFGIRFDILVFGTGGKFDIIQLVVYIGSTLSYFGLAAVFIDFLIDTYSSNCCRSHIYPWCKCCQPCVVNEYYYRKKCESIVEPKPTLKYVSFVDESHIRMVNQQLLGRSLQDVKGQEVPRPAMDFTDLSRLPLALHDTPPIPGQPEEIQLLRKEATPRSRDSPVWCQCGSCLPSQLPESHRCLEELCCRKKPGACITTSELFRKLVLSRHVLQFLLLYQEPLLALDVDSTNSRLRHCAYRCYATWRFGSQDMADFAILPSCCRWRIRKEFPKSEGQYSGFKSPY"}, "[1]": {"target": "T2, Flag-UPS13(1-300) (human) (UniProt Q92995)", "T2 sequence": "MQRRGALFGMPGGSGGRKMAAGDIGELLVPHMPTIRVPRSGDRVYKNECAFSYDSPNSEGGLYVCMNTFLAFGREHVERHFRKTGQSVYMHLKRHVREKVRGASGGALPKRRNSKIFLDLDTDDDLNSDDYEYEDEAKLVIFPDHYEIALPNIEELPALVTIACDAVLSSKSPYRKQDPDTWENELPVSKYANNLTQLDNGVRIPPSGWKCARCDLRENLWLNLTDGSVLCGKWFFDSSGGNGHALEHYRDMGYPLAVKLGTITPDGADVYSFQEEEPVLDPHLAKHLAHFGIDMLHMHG"}, "Flag-P2X7(33-595)": {"target": "T3, Flag-P2X7(33-595) (UniProt Q99572)", "T3 sequence": "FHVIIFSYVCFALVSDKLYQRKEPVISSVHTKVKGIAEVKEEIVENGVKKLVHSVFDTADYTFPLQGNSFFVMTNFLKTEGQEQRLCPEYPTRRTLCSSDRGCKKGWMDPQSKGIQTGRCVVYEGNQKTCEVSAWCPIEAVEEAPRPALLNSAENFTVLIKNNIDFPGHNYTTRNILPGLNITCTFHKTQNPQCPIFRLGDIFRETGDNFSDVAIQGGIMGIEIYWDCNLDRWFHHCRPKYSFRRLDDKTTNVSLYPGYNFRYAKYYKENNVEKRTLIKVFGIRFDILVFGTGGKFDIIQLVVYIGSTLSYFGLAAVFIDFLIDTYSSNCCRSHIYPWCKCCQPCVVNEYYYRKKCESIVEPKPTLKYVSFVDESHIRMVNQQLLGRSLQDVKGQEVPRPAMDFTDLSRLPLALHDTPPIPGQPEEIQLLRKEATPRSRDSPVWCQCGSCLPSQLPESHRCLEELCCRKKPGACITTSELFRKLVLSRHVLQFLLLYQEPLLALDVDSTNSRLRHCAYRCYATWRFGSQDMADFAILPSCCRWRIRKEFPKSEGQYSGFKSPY"}, "Flag-P2X7(47-595)": {"target": "T4, Flag-P2X7(47-595) (UniProt Q99572)", "T4 sequence": "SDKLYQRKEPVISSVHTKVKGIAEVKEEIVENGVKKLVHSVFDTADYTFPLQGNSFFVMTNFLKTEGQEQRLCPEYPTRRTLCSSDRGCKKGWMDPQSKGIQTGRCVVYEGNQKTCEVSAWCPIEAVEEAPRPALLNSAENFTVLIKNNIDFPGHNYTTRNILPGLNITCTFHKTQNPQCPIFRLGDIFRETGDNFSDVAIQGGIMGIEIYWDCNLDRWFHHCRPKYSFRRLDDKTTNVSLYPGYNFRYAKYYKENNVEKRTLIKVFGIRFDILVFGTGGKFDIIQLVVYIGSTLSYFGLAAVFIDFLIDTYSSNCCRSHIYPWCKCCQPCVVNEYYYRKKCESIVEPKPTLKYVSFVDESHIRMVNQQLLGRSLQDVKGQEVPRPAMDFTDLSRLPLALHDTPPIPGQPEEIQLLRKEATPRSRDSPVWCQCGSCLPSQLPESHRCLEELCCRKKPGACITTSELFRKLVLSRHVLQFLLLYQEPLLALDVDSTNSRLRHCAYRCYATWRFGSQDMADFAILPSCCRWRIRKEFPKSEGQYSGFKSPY"}, "Flag-P2X7(356-595)": {"target": "T5, Flag-P2X7(356-595) (UniProt Q99572)", "T5 sequence": "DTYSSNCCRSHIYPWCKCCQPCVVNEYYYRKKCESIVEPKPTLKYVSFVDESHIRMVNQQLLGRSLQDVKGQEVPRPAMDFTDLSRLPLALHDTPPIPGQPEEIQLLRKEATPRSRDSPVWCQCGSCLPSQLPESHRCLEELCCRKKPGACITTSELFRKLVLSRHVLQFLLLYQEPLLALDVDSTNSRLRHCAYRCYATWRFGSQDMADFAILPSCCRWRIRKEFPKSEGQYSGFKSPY"}}, "note": "These are yes or no findings as the source states them, for the method shown. Binding seen in cells or lysates may run through a third protein. Some binding calls cover weakened binding; strength is not graded here. Where a sequence is shown, tags or fusion partners need not be part of it."}
{"substance": "HA-Paxillin (from UniProt P49023 1-591)", "values": [{"measurement": "binding", "setting": "Flag-P2X7(29-595)", "result": "binds"}, {"measurement": "binding", "setting": "[1]", "result": "binds"}, {"measurement": "binding", "setting": "Flag-P2X7(33-595)", "result": "no binding"}, {"measurement": "binding", "setting": "Flag-P2X7(47-595)", "result": "no binding"}, {"measurement": "binding", "setting": "Flag-P2X7(356-595)", "result": "no binding"}]}
